{"source": "PubChem BioAssay AID743454 (Peter MacCallum Cancer Centre, 2014)", "assay": "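Genes whose loss kills vorinostat-resistant colon cancer cells under vorinostat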 (primary screen)", "cells": "human HCT116-VR colon cancer cells, selected for vorinostat resistance", "knock-down reagent": "siRNA pool against human genes, 40 nM siRNA pool", "time to read-out": "vorinostat for 24 h, read-out about 72 h after transfection", "treatment": "vorinostat at 2.5 µM final", "measurement": "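Cell viability by CellTiter-Fluor and caspase 3/7 activity by luminescence, each scaled to mock wells per plate, duplicates averaged, then robust z-scored over all plates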", "reading the numbers": "viability robust z-score: higher = more viable cells than screen typical; caspase robust z-score: higher = more caspase 3/7 activity than screen typical", "rule for the call": "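Hits are knock-downs in viability class RV1/RV2 or caspase class CA1/CA2, excluding ones that killed cells in the no-drug cell-count arm; hits then retested with single siRNAs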", "note": "In all, the deposit lists about 18,000 reagents; shown is a random part of them. 450 of them (2.5%) were called active. 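Single biological run; no consistent viability z cut-off exists, so the class columns, not z-scores, define the calls.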 A number with no mark means an inactive call."}
{"target gene":"FBXL20","viability hit class":"no change","caspase hit class":"no change","viability robust z-score":-0.18,"caspase robust z-score":0.38}
{"target gene":"TMEM40","viability hit class":"no change","caspase hit class":"no change","viability robust z-score":0.05,"caspase robust z-score":0.36}
{"target gene":"LECT2","viability hit class":"no change","caspase hit class":"no change","viability robust z-score":1,"caspase robust z-score":-1}
{"target gene":"NR2E3","viability hit class":"no change","caspase hit class":"no change","viability robust z-score":0.58,"caspase robust z-score":-0.36}
{"target gene":"TFEC","viability hit class":"no change","caspase hit class":"no change","viability robust z-score":-0.1,"caspase robust z-score":-1.09}
{"target gene":"DEFB107A","viability hit class":"no change","caspase hit class":"no change","viability robust z-score":0.16,"caspase robust z-score":-0.18}
{"target gene":"PKD1L1-AS1","viability hit class":"no change","caspase hit class":"no change","viability robust z-score":-1.8,"caspase robust z-score":3.08}
{"target gene":"FAM50A","viability hit class":"no change","caspase hit class":"no change","viability robust z-score":0.82,"caspase robust z-score":1.84}
{"target gene":"OR52A1","viability hit class":"no change","caspase hit class":"no change","viability robust z-score":1.34,"caspase robust z-score":-0.44}
{"target gene":"PACRG","viability hit class":"no change","caspase hit class":"no change","viability robust z-score":0.08,"caspase robust z-score":1.98}
{"target gene":"PTTG1","viability hit class":"no change","caspase hit class":"no change","viability robust z-score":0.7,"caspase robust z-score":-0.32}
{"target gene":"RC3H1","viability hit class":"no change","caspase hit class":"no change","viability robust z-score":-1.66,"caspase robust z-score":0.53}
